Data: PubChem BioAssay AID330 (DTP/NCI, 2004)
The list does not hold the whole screen: it is rich in T/C values a quarter to a half above the control, in often repeated tests (any T/C) and in doses without a T/C. Other doses and runs of a compound stand elsewhere. T/C is the treated group as % of the vehicle group. Some entries give survivors of the animals treated and no T/C: the source files T/C as zero there, which appears to mark a toxic dose or a test without result, not a measured value. Some survivor counts are full or nearly so, which does not show that the dose was tolerated: survival well below the control is almost never listed, so the zero probably covers shortened survival too. Counts of survivors are from the toxicity check (mostly the fifth day) where no day follows; animals may have died later. Schedule codes are those of the source, taken here to give the interval after Q, in days (D) or hours (H), and the number of doses after X. Marks such as (2×) give the number of equal values in this list. Some entries were tested several times; the values are given in rising order. For survival time, this PubChem deposit counts one and a half times the control or more as active, and values a quarter to a half above the control carry no call in these data; other NCI protocols may use other cut-offs. Some T/C values are followed by the survivors on the day toxicity was checked, most often the fifth; without a count, all were alive then.

Tested on: P388 leukemia ip, CD2F1 mice, survival T/C
Experiment: NCI In Vivo Anticancer Drug Screen. Data for tumor model P388 Leukemia (intraperitoneal) in CD2F1 (CDF1) mice
Settings: T/C endpoint: median survival time, higher T/C = longer survival
[1] = dose: 50.0 mg/kg/injection, schedule: Q01DX009 (ip), vehicle: other
[2] = dose: 100.0 mg/kg/injection, schedule: Q01DX005 (ip), vehicle: saline with Tween-80
[3] = dose: 200.0 mg/kg/injection, schedule: Q01DX005 (ip), vehicle: saline with Tween-80
[4] = dose: 50.0 mg/kg/injection, schedule: Q01DX009 (ip), vehicle: saline
[5] = dose: 100.0 mg/kg/injection, schedule: Q01DX009 (ip), vehicle: saline
[6] = dose: 200.0 mg/kg/injection, schedule: Q01DX009 (ip), vehicle: saline
[7] = dose: 60.0 mg/kg/injection, schedule: Q01DX005 (ip), vehicle: saline with Tween-80
[8] = dose: 240.0 mg/kg/injection, schedule: Q01DX005 (ip), vehicle: saline with Tween-80
[9] = dose: 50.0 mg/kg/injection, schedule: Q01DX009 (ip), vehicle: saline with Tween-80
[10] = dose: 200.0 mg/kg/injection, schedule: Q01DX009 (ip), vehicle: saline with Tween-80
[11] = dose: 100.0 mg/kg/injection, schedule: Q04DX003 (ip), vehicle: saline with Tween-80
[12] = dose: 200.0 mg/kg/injection, schedule: Q01DX005 (ip), vehicle: Klucel (hydroxypropylcellulose) (HPC)

[N-]=[N+]=CC(=O)OCC1NC(=O)C(COC(=O)C=[N+]=[N-])NC1=O (configuration not stated)
survivor count (dose: 0.78 mg/kg/injection, schedule: Q01DX009 (ip), vehicle: other): 0 of 6 (2×) | survivor count (dose: 1.56 mg/kg/injection, schedule: Q01DX009 (ip), vehicle: other): 0 of 6 (2×) | survivor count (dose: 3.12 mg/kg/injection, schedule: Q01DX009 (ip), vehicle: other): 0 of 6 | survivor count (dose: 3.13 mg/kg/injection, schedule: Q01DX009 (ip), vehicle: other): 0 of 6 | survivor count (dose: 6.25 mg/kg/injection, schedule: Q01DX009 (ip), vehicle: other): 0 of 6 (2×) | survivor count (dose: 12.5 mg/kg/injection, schedule: Q01DX009 (ip), vehicle: other): 0 of 4 (2×) and 0 of 6 (2×) | survivor count (dose: 25.0 mg/kg/injection, schedule: Q01DX009 (ip), vehicle: other): 0 of 4 (2×) | T/C [1]: 129 and 137 % of control | survivor count [1]: 0 of 4 (2×) | survivor count (dose: 100.0 mg/kg/injection, schedule: Q01DX009 (ip), vehicle: other): 0 of 4 (2×) | survivor count (dose: 200.0 mg/kg/injection, schedule: Q01DX009 (ip), vehicle: other): 0 of 4 (2×)

CCCCN(CCCC)CC(C)(C)C(O)c1ccc(OC)c2ccccc12 (configuration not stated)
survivor count [2]: 2 of 5 | survivor count [3]: 0 of 5

COC(=O)C1=C(C(=O)OC)[C](C(=O)c2ccccc2)([Sn]([CH3])([CH3])[CH3])N=N1 (configuration not stated)
survivor count (dose: 6.25 mg/kg/injection, schedule: Q01DX009 (ip), vehicle: saline): 0 of 6 | survivor count (dose: 12.5 mg/kg/injection, schedule: Q01DX009 (ip), vehicle: saline): 0 of 6 | survivor count (dose: 25.0 mg/kg/injection, schedule: Q01DX009 (ip), vehicle: saline): 0 of 6 | survivor count [4]: 0 of 6 | survivor count [5]: 0 of 6 | survivor count [6]: 0 of 6

Cc1cc2cc(C3CCNCC3)oc2cc1C
survivor count (dose: 12.5 mg/kg/injection, schedule: Q01DX009 (ip), vehicle: Klucel (hydroxypropylcellulose) (HPC)): 5 of 6 | survivor count (dose: 100.0 mg/kg/injection, schedule: Q01DX009 (ip), vehicle: Klucel (hydroxypropylcellulose) (HPC)): 0 of 6 | survivor count (dose: 200.0 mg/kg/injection, schedule: Q01DX009 (ip), vehicle: Klucel (hydroxypropylcellulose) (HPC)): 0 of 6

COc1cc(Br)c(C(=O)N2CCc3cc([N+](=O)[O-])ccc32)cc1OC
survivor count (dose: 400.0 mg/kg/injection, schedule: Q01DX009 (ip), vehicle: other): 4 of 6

CCCCCCCCCCCCCCCCCCCC(O)CCCCCCCCC (configuration not stated)
survivor count [7]: 6 of 6 | survivor count [8]: 6 of 6

CCCCCCC(/C=C/c1ccc(Cl)c(Cl)c1)=N\Nc1ccc(Cl)cc1Cl
survivor count [9]: 6 of 6

COC(=O)CCn1nc(-c2ccccc2)c(-c2ccccc2)c(S(C)(=O)=O)c1=O
survivor count (dose: 100.0 mg/kg/injection, schedule: Q04DX002 (ip), vehicle: distilled water + Tween-80): 6 of 6

O=C(O)CCC(=O)c1ccc2ccc3cccc4ccc1c2c34
survivor count [10]: 0 of 6 | survivor count (dose: 400.0 mg/kg/injection, schedule: Q01DX009 (ip), vehicle: saline with Tween-80): 0 of 6

CN=C(N)N/N=C(\C)c1ccc(Cl)c(Cl)c1
survivor count (dose: 100.0 mg/kg/injection, schedule: Q04DX002 (ip), vehicle: saline with Tween-80): 2 of 6

Cn1cnc([N+](=O)[O-])c1S(=O)(=O)NCN1CCOCC1
T/C (dose: 25.0 mg/kg/injection, schedule: Q01DX009 (ip), vehicle: Klucel (hydroxypropylcellulose) (HPC)): 125 % of control [5 of 6 alive] | T/C (dose: 50.0 mg/kg/injection, schedule: Q01DX009 (ip), vehicle: Klucel (hydroxypropylcellulose) (HPC)): 135 % of control

COc1ccc2c(c1)CC(=CO)CC2=O.COc1ccc2c(c1)CC/C(=C/O)C2=O.[Cu]
survivor count [9]: 6 of 6 | survivor count [11]: 6 of 6

COc1ccc2c(c1CCl)C(=O)OC2
survivor count (dose: 100.0 mg/kg/injection, schedule: Q01DX009 (ip), vehicle: saline with Tween-80): 6 of 6 | survivor count [10]: 6 of 6

COc1cccc2c1C(=O)c1c(O)c3c(c(O)c1C2=O)CC(O)(C(O)CO)CC3OC1CC(N2CCOCC2C#N)C(O)C(C)O1 (configuration not stated)
T/C (dose: 0.1 mg/kg/injection, schedule: Q04DX003 (ip), vehicle: water): 141 % of control | T/C (dose: 0.4 mg/kg/injection, schedule: Q04DX003 (ip), vehicle: water): 130 % of control | survivor count (dose: 1.6 mg/kg/injection, schedule: Q04DX003 (ip), vehicle: water): 1 of 6 on day 9 | T/C (dose: 100.0 micrograms/kg/injection, schedule: Q04DX003 (ip), vehicle: water): 128 % of control

COP(=O)(OC)C(=[N+]=[N-])c1ccccc1
survivor count (dose: 25.0 mg/kg/injection, schedule: Q01DX009 (ip), vehicle: water): 6 of 6

CN(C)c1ccc2ncc(C(N)=O)c(N)c2c1
survivor count (dose: 60.0 mg/kg/injection, schedule: Q01DX005 (ip), vehicle: Klucel (hydroxypropylcellulose) (HPC)): 2 of 6 | survivor count (dose: 120.0 mg/kg/injection, schedule: Q01DX005 (ip), vehicle: Klucel (hydroxypropylcellulose) (HPC)): 0 of 6 | survivor count (dose: 240.0 mg/kg/injection, schedule: Q01DX005 (ip), vehicle: Klucel (hydroxypropylcellulose) (HPC)): 0 of 6

Cc1ccc(-c2nc3ncnc(N)c3[nH]2)cc1
survivor count (dose: 50.0 mg/kg/injection, schedule: Q04DX003 (ip), vehicle: saline with Tween-80): 3 of 6 | survivor count [11]: 3 of 6 | survivor count (dose: 200.0 mg/kg/injection, schedule: Q04DX003 (ip), vehicle: saline with Tween-80): 1 of 6 | survivor count (dose: 400.0 mg/kg/injection, schedule: Q04DX003 (ip), vehicle: saline with Tween-80): 0 of 6

OC1(O)/C=C\CCCCC/C=C\1
survivor count (dose: 50.0 mg/kg/injection, schedule: Q01DX005 (ip), vehicle: saline with Tween-80): 3 of 5

O=c1nc2n(c3nccnc13)CCS2
survivor count [4]: 3 of 6 | survivor count [5]: 0 of 6 | survivor count [6]: 0 of 6

COc1cc(N(CCCl)CCCl)ccc1C=Nc1ccccc1C(=O)O
survivor count (dose: 28.12 mg/kg/injection, schedule: Q04DX003 (ip), vehicle: saline with Tween-80): 5 of 6 | survivor count (dose: 37.5 mg/kg/injection, schedule: Q04DX003 (ip), vehicle: saline with Tween-80): 6 of 6 | survivor count (dose: 75.0 mg/kg/injection, schedule: Q04DX003 (ip), vehicle: saline with Tween-80): 2 of 6

CC12CCC(CC1=O)C2(C)CC#N (configuration not stated)
survivor count (dose: 30.0 mg/kg/injection, schedule: Q01DX005 (ip), vehicle: saline): 0 of 6 | survivor count [7]: 0 of 6 | survivor count (dose: 120.0 mg/kg/injection, schedule: Q01DX005 (ip), vehicle: saline with Tween-80): 0 of 6 | survivor count [8]: 0 of 6

CC(C)C12OC1C1OC13C1(C)CCC4=C(COC4=O)C1CC1OC13C2=O (configuration not stated)
T/C (dose: 10.0 mg/kg/injection, schedule: Q01DX005 (ip), vehicle: saline + alcohol): 126 % of control

C[C@]12CC[C@H](O)C[C@@H]1CC[C@@H]1[C@@H]2CC[C@]2(C)c3nc4ccccc4c(C(=O)O)c3C[C@@H]12
survivor count [2]: 6 of 6

CCCCN=NN/C=C/C(C)(C)C
T/C [2]: 128 % of control | T/C [3]: 130 % of control

C1=C(N2CCOCC2)N(c2ccccc2)c2ccccc2N=C1N1CCCC1
survivor count (dose: 100.0 mg/kg/injection, schedule: Q01DX005 (ip), vehicle: Klucel (hydroxypropylcellulose) (HPC)): 1 of 6 | survivor count [12]: 0 of 6

CC(C)(C)N1C(=O)C(c2ccccc2)(c2ccccc2)C1/C=C/c1ccccc1 (configuration not stated)
survivor count [12]: 5 of 6

O=C1c2cccc3cccc(c23)C(=O)N1CCc1ccccn1
survivor count [3]: 4 of 6
